In assay [1] the target is T1, claudin-5 (rat (endogenous in primary alveolar epithelial cells)) (UniProt Q9JKD6).
T1 sequence: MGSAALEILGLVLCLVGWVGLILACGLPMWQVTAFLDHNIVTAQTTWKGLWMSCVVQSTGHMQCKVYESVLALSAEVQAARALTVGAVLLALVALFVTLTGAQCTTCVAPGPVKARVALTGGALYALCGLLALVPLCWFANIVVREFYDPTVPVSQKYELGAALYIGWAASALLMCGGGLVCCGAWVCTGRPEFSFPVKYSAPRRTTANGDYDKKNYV
Briefly: co-IP; primary rat AECs, 6 days on Transwell supports; lysed in DPBS with Ca2+/Mg2+ and 0.1% Triton X-100, sonicated; precleared supernatant with antibody on protein A magnetic beads overnight at 4 °C; immunoblot. Background: In western blotting, separated proteins are transferred to a membrane and probed.

The chains behind the UniProt entries cited, without tags or fusion partners.
UniProt A0ACM8Q5W3: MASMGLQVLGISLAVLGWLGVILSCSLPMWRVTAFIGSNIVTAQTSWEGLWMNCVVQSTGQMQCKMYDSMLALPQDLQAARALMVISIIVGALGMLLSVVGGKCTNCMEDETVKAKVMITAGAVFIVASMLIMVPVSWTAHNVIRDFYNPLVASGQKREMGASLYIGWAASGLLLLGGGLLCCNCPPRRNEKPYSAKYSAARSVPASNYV
UniProt A0A0G2K2P5: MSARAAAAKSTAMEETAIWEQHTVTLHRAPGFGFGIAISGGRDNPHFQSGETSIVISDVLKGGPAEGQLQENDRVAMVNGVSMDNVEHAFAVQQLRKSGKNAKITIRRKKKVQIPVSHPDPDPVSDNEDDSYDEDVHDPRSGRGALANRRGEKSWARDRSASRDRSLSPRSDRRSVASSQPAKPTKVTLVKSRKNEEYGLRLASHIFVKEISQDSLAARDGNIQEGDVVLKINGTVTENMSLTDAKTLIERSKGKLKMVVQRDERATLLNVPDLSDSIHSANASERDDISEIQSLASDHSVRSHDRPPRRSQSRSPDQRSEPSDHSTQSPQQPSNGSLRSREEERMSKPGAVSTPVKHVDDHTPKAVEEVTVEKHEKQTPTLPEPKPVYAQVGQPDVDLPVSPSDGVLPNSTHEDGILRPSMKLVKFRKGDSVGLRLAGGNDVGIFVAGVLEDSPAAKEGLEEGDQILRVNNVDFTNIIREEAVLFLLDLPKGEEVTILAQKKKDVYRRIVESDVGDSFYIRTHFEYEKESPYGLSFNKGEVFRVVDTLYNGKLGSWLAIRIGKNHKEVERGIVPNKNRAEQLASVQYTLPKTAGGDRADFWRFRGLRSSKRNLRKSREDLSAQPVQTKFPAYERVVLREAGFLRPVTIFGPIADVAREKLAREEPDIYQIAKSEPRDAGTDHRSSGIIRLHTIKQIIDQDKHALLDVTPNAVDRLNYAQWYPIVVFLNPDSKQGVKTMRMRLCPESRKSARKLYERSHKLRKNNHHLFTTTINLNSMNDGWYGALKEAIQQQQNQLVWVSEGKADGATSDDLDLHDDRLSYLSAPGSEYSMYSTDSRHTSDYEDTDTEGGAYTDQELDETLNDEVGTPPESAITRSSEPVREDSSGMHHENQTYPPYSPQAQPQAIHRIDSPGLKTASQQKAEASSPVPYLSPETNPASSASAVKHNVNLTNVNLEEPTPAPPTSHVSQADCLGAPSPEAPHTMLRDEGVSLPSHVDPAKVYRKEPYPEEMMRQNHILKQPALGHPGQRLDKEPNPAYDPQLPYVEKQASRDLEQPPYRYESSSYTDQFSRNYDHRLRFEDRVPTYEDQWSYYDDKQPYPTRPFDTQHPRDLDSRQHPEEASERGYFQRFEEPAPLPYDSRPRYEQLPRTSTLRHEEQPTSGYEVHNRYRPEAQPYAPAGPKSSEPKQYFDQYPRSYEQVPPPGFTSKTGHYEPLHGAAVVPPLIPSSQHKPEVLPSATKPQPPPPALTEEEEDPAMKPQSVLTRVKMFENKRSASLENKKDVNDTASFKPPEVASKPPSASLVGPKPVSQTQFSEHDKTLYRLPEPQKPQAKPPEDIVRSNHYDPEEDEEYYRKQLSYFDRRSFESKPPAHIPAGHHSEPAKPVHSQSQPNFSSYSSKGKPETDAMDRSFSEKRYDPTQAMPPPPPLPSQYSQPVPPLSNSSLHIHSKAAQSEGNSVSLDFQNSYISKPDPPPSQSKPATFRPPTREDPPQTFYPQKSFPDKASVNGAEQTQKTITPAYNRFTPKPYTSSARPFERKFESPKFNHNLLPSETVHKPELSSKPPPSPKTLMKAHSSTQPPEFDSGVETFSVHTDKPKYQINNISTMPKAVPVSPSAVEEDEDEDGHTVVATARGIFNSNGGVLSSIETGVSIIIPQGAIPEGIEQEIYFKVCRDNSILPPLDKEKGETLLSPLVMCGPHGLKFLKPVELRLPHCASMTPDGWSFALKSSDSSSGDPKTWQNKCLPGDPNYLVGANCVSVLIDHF

For assay [2], the target named is T1, claudin-5 (rat (endogenous in primary alveolar epithelial cells)). Description: proximity ligation; primary rat AECs from control- or alcohol-fed rats, 6 days on Transwell supports, fixed with methanol/acetone; pairs of mouse and rabbit primary antibodies, Duolink detection Kit Red; number of clusters above threshold counted.
Assay [3] has as its target zonula occludens 1 (rat (endogenous in primary alveolar epithelial cells)). Described as above.

No constants are given. Whether binding was seen depends on the method and setting. In cells and extracts the contact can be indirect. Some binding calls cover weakened binding; strength is not graded here.

Turning to “claudin-4 (from UniProt A0ACM8Q5W3 1-210)”, the binding result in assay [1] was “binds”.

For the molecule “zonula occludens 1 (from UniProt A0A0G2K2P5 1-1765)”, the binding entry in assay [2] and in assay [1] was “binds” throughout.

B1: claudin-18 (protein, UniProt Q5I0E5 1-261)
chain: MATTTCQVVGLLLSLLGLAGCIAATGMDMWSTQDLYDNPVTSVFQYEGLWRSCVQQSSGFTECRPYFTILGLPAMLQAVRALMIVGIVLGVIGILVSIFALKCIRIGSMDDSAKAKMTLTSGIMFIISGVCAIIGVSVFANMLVTNFWMSTANMYSGMGGMVQTVQTRYTFGAALFVGWIAGGLTLIGGVMMCIACRGLTPDDRNFKAVSYHASGQNVAYKPGGFKASTGFGSNARNKKIYDGGARTEDDEQSHPTKYDYV
In the case of B1, the binding entry in assay [2], in assay [3] and in assay [1] was “binds” throughout.

(Values after article PMC4962485.)
